Experimental data: patent US11059795B2, “Androgen receptor modulators and methods for their use” (ESSA Pharma, Inc., priority 2018, dated 2021)

Test system: LNCaP cells
Assay: Cell proliferation/viability assay, LNCaP (Alamar blue)
Format: cell-based
Conditions: Homo sapiens, AR specific proliferation with 0.1 nM R1881, read-out: Cellular Proliferation/Viability IC50 (μM) LNCaP
Experimental: Cell proliferation/viability was measured in LNCaP and PC3 cells with Alamar blue, and proliferation was measured in LN-CaP95 cells with BrdU incorporation. In LNCaP cells, AR specific proliferation is calculated by measuring the difference between control cells treated with or without 0.1 nM R1881.

## CNC(=O)c1ccc(N2C(=S)N(c3ccc(C#N)c(C(F)(F)F)c3)C(=O)C2(C)C)cc1F [Enzalutamide, enzalutamide, reference compound]
  IC50: 0.35 µM
